Taken from: PubChem BioAssay AID1671195 (Yale University, 2021)

Aim: 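Knockdowns that increase or decrease uptake of fluorescent LDL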 (primary screen)
Cell system: human Huh7 hepatoma cells
Reagent: siRNA pool against human genes, 18 nM
Duration: about 2 to 2.5 days of knockdown, then 8 h LDL uptake
Conditions: DiI-labelled LDL at 30 µg/ml for 8 h, in lipoprotein-deficient serum medium
Detection: 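Per-cell DiI-LDL intensity by automated imaging; well means scaled to the plate median and given as a robust z-score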
Direction: robust z-score: higher = more LDL uptake after knockdown
Call rule: 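a gene counts as active if at least two replicate z-scores exceed ±2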
Shown is an unselected part of about 22,000 reagents tested. About 1,510 of all reagents (6.9%) were called active. 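Active includes knockdowns raising or lowering LDL uptake; positive z-scores mean more uptake, negative mean less.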

gene symbol | robust z-score, replicate 1 | robust z-score, replicate 2 | robust z-score, replicate 3 | activity call
UGT1A3 | -1.22 | -0.886 | -0.885 | inactive
SNAP25 | 0.424 | 1.04 | 0.996 | inactive
LOC390615 (retired record) | 0.512 | 0.172 | 0.498 | inactive
ZNF251 | -0.646 | -0.948 | -1.2 | inactive
C7orf33 | 0.0366 | -0.542 | -0.467 | inactive
RPA1 | 3.52 | 1.97 | 3.54 | active
LINC02991 | -1.34 | -1.68 | -1.53 | inactive
SNX11 | -0.786 | -0.885 | -0.78 | inactive
POLR2E | -0.966 | -0.726 | -0.554 | inactive
TUBA4A | 0.256 | 0.23 | 0.237 | inactive
SATB2-AS1 | 0.198 | -0.543 | -0.241 | inactive
SAMM50 | -0.695 | -1.74 | -1.08 | inactive
FAM220A | 0.177 | 0.853 | 0.126 | inactive
OAZ3 | -0.624 | -1.21 | -0.577 | inactive
DYNAP | 1.98 | 1.59 | 1.95 | inactive
ZNF429 | -0.849 | -0.932 | -1.14 | inactive
LOC441681 (retired record) | -1.17 | -0.847 | -1.45 | inactive
ECPAS | 0.205 | 0.934 | -0.513 | inactive
LOC440781 (retired record) | 3.25 | 2.8 | 2.9 | active
GABRR2 | -0.665 | 0.0778 | -0.274 | inactive
FKBP9 | -0.415 | 0.011 | -0.384 | inactive
EHF | 1.34 | 2 | 2.13 | active

Hits, of those listed so far:
gene symbol | robust z-score, replicate 1 | robust z-score, replicate 2 | robust z-score, replicate 3 | activity call
RPA1 | 3.52 | 1.97 | 3.54 | active
LOC440781 (retired record) | 3.25 | 2.8 | 2.9 | active
EHF | 1.34 | 2 | 2.13 | active

Further reagents:
gene symbol | robust z-score, replicate 1 | robust z-score, replicate 2 | robust z-score, replicate 3 | activity call
PPBP | -1.62 | 0.501 | -1.63 | inactive
TSPAN13 | -1.18 | 0.139 | -1.1 | inactive
SELENOF | 2.56 | -0.593 | 0.232 | inactive
LOC441018 (retired record) | 0.332 | 0.557 | 0.412 | inactive
POGK | -1.98 | -1.52 | -1.46 | inactive
LOC441033 (retired record) | -0.363 | -0.0689 | -0.464 | inactive
DAOA | -0.884 | -0.392 | -0.507 | inactive
NR2F2 | 1.33 | 1.18 | 0.868 | inactive
ARHGAP40 | -0.37 | -0.362 | -0.667 | inactive
SLC7A7 | -0.389 | -0.933 | -0.326 | inactive
HSPBAP1 | -0.149 | 0.554 | 0.0901 | inactive
SUZ12 | 0.379 | -0.0812 | 0.87 | inactive
PNKD | 0.434 | 0.898 | -0.67 | inactive
P2RY11 | -1.09 | -1.42 | -1.21 | inactive
BMPR2 | -0.85 | -1.71 | -0.378 | inactive
LOC439938 (retired record) | -0.854 | -0.877 | -1.12 | inactive
OR3A1 | 1.19 | 0.854 | 1.21 | inactive
NGB | -0.289 | -0.196 | 0.00773 | inactive
CDC26 | 0.457 | 0.211 | 0.142 | inactive
CTTNBP2NL | 2.2 | 3.33 | 1.22 | active
LOC441493 (retired record) | -0.0961 | -0.223 | -0.316 | inactive
LOC441827 (retired record) | -1.56 | -1.16 | -0.92 | inactive
OLFML1 | 1.74 | 2.08 | 1.91 | active
TBC1D26 | 0.553 | 0.039 | 0.12 | inactive
TRIM23 | 0.88 | 0.223 | 0.365 | inactive
TDP1 | -1.94 | -1.36 | -1.59 | inactive
AMFR | -0.454 | -0.637 | -0.285 | inactive
ISL1 | 2.23 | 1.66 | 0.738 | inactive
GOLGA1 | -0.715 | -0.233 | -1.65 | inactive
GRIN3A | 0.735 | 0.673 | 1.75 | inactive
CDC5L | -1.22 | -0.0691 | -0.449 | inactive
TIMP4 | -0.296 | 0.0166 | -0.362 | inactive
DDB2 | -0.399 | -1.68 | -0.856 | inactive
HNF1A | 2.01 | 1.07 | 0.604 | inactive
BCAP29 | 0.0372 | 0.358 | -0.601 | inactive
SLC6A10P | -0.61 | -0.885 | -0.685 | inactive
SLC25A2 | -0.593 | -0.418 | -0.681 | inactive
PAIP1 | 2.72 | 1.54 | 0.655 | inactive
BPIFA2 | 0.661 | -0.406 | 0.602 | inactive
HLA-G | -0.314 | -0.587 | -0.406 | inactive
ZNF586 | 1.46 | 3.28 | 1.3 | inactive
IL17RB | -6.11 | -6.6 | -0.29 | inactive
TBC1D15 | -0.605 | 0.216 | 0.0171 | inactive
KDM4E | -0.615 | -0.523 | -0.806 | inactive
FLJ31945 (retired record) | -1.34 | -1.48 | -1.24 | inactive
DDX27 | -0.665 | -0.453 | 0.0267 | inactive
